Among the data in publication PMC5504347 are binding values, retold here.

The chains behind the UniProt entries cited, without tags or fusion partners. Where a name states a change or a piece, a line headed by the entry shows the natural chain unless it says otherwise. A line that says so, or that is headed by a name, gives the form on record, which may keep a tag or linker.
UBE2D3 (E2 ubiquitin ligase) (P61077-2, form named): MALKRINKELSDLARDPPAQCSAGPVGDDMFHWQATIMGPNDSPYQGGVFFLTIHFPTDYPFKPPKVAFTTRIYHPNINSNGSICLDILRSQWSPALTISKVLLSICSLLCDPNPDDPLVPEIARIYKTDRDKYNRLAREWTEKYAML

These are yes or no findings as the source states them, for the method shown. In cells and extracts the contact can be indirect. Here binding means that the protein was enriched with, or labelled near, the bait; the list need not be complete. Sequences can lack the tags named with a protein.

The target in this test is T1, 3xFlag-ZNF598 (Zinc Finger Protein 598) (human) (UniProt Q86UK7).
T1 sequence: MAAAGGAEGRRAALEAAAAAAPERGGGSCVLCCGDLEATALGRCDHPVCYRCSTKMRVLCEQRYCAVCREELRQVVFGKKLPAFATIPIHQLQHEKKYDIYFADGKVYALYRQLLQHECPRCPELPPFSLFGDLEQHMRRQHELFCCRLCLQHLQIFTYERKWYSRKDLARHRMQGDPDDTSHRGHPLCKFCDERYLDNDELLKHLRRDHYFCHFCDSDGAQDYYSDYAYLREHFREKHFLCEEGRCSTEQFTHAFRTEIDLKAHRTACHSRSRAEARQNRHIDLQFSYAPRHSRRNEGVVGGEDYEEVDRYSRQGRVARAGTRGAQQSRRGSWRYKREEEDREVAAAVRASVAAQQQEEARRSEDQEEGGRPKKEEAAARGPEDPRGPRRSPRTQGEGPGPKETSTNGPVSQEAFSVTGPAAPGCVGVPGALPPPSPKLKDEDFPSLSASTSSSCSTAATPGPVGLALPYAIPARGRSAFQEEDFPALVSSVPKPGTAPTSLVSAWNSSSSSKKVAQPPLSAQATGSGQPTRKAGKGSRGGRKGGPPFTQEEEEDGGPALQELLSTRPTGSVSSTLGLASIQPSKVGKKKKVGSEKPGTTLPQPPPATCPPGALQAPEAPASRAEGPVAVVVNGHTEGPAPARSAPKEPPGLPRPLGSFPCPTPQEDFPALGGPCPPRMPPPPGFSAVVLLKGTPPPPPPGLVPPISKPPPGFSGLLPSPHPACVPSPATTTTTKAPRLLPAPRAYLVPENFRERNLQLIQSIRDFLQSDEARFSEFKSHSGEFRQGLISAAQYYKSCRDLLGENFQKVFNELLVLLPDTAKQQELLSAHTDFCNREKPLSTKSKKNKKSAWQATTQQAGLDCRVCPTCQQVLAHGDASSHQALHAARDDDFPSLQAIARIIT
In words: affinity purification with mass spectrometry; anti-FLAG-M2 magnetic beads on NP40 lysate of cells expressing 3xFlag-ZNF598 or 3xFlag alone; washes with 300 mM and 500 mM KCl; elution with Flag peptide; label-free LC-MS/MS; three biological replicates.

As to “UBE2D3 (E2 ubiquitin ligase) (from UniProt P61077-2 1-148) (enzyme)”, the binding result was “binds”.
